Assay results: paper PMC12316019
These are yes or no findings as the source states them, for the method shown. In cells and extracts the contact can be indirect. A yes stands for co-enrichment or nearness to the bait. Other partners may have been found. Tags and fused reporters may be left off the sequences shown.

By UniProt entry, the sequences of proteins in these tests, tags left out.
UniProt P46379: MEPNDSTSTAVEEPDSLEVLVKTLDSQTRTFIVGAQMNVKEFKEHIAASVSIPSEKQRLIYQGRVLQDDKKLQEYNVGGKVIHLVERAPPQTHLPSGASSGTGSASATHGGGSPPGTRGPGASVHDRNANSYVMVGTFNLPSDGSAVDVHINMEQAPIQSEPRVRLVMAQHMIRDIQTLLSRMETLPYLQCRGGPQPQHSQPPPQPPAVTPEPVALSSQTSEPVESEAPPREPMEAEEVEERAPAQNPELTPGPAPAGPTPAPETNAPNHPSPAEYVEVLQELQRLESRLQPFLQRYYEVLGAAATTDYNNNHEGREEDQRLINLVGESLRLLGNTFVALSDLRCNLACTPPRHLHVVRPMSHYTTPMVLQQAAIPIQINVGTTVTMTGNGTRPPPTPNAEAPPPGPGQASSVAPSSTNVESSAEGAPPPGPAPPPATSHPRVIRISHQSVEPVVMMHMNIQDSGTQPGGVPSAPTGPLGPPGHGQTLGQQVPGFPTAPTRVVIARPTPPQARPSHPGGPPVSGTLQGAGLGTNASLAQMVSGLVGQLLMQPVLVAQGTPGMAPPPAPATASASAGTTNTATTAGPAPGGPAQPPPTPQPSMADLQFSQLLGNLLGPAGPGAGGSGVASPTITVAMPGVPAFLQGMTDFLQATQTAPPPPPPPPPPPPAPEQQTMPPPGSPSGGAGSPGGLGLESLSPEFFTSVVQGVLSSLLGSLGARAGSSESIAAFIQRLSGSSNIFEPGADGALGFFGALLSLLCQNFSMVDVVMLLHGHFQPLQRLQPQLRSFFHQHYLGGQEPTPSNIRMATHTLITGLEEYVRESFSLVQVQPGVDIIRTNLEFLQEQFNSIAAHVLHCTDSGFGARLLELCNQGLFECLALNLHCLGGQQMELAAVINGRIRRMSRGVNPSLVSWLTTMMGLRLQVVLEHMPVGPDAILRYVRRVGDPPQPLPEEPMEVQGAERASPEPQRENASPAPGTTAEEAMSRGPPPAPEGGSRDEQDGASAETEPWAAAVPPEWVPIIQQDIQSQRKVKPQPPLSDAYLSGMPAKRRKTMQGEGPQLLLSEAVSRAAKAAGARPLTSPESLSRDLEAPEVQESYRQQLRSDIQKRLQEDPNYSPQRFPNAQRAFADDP
UniProt O43681: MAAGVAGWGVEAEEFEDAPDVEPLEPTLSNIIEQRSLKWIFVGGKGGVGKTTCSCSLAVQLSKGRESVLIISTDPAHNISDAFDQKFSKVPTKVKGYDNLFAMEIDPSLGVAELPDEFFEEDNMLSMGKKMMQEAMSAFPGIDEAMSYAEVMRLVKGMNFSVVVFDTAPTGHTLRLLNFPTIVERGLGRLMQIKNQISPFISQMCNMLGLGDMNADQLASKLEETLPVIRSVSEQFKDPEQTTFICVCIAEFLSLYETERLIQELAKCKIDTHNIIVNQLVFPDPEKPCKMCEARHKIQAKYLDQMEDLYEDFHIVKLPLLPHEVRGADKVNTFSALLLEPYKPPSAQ

T1: EGFP-TREX1^WT (human) (UniProt Q9NSU2)
T1 sequence: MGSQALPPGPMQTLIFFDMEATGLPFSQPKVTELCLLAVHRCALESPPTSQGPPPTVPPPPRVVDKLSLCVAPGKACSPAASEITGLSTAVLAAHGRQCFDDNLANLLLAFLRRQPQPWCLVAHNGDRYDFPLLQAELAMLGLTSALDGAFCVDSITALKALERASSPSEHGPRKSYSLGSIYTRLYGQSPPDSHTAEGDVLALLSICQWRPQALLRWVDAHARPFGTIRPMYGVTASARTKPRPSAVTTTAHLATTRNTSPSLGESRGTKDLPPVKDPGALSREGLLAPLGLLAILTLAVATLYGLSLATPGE

B1: EMC1 (protein, UniProt Q8N766 23-993)
chain: YEDQVGKFDWRQQYVGKVKFASLEFSPGSKKLVVATEKNVIAALNSRTGEILWRHVDKGTAEGAVDAMLLHGQDVITVSNGGRIMRSWETNIGGLNWEITLDSGSFQALGLVGLQESVRYIAVLKKTTLALHHLSSGHLKWVEHLPESDSIHYQMVYSYGSGVVWALGVVPFSHVNIVKFNVEDGEIVQQVRVSTPWLQHLSGACGVVDEAVLVCPDPSSRSLQTLALETEWELRQIPLQSLDLEFGSGFQPRVLPTQPNPVDASRAQFFLHLSPSHYALLQYHYGTLSLLKNFPQTALVSFATTGEKTVAAVMACRNEVQKSSSSEDGSMGSFSEKSSSKDSLACFNQTYTINLYLVETGRRLLDTTITFSLEQSGTRPERLYIQVFLKKDDSVGYRALVQTEDHLLLFLQQLAGKVVLWSREESLAEVVCLEMVDLPLTGAQAELEGEFGKKADGLLGMFLKRLSSQLILLQAWTSHLWKMFYDARKPRSQIKNEINIDTLARDEFNLQKMMVMVTASGKLFGIESSSGTILWKQYLPNVKPDSSFKLMVQRTTAHFPHPPQCTLLVKDKESGMSSLYVFNPIFGKWSQVAPPVLKRPILQSLLLPVMDQDYAKVLLLIDDEYKVTAFPATRNVLRQLHELAPSIFFYLVDAEQGRLCGYRLRKDLTTELSWELTIPPEVQRIVKVKGKRSSEHVHSQGRVMGDRSVLYKSLNPNLLAVVTESTDAHHERTFIGIFLIDGVTGRIIHSSVQKKAKGPVHIVHSENWVVYQYWNTKARRNEFTVLELYEGTEQYNATAFSSLDRPQLPQVLQQSYIFPSSISAMEATITERGITSRHLLIGLPSGAILSLPKALLDPRRPEIPTEQSREENLIPYSPDVQIHAERFINYNQTVSRMRGIYTAPSGLESTCLVVAYGLDIYQTRVYPSKQFDVLKDDYDYVLISSVLFGLVFATMITKRLAQVKLLNRAWR

target: T1, EGFP-TREX1^WT (human); test: affinity purification with mass spectrometry; GFP-Trap agarose on RIPA lysates of tetracycline-induced (24 h) stable HeLa^FTO lines, lysate and beads 2 h at 4°C; relative quantification by LC-MS-MS, TREX1^V235fs versus TREX1^WT; three independent experiments

binding, binds:
BAG6 (from UniProt P46379 1-1132)
Guided Entry of Tail-Anchored Proteins Factor 3 (from UniProt O43681 1-348)
B1
